# This is one part of the list. Further columns of the screen follow, without active or inactive calls. Compounds called inactive in the main read-out are mostly missing here. Words in brackets tell the shape of the fitted curve; partial curves, single points and poor fits give uncertain potencies.
# Assay: qHTS Assay for Lipid Storage Modulators in Drosophila S3 Cells;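 as to cell number change: cells counted by Cell Tracker Red CMTPX staining in the red channel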
# Conditions: BODIPY lipid droplet fluorescence, 18-24 h; for cell number change: measured here: cell count max response, cells fed with added oleic acid
# In short: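 Laser-scanning cytometry quantifies lipid droplet accumulation (500–530 nm total intensity; droplet/cell object ratio) in oleic acid-fed (400 uM added) Drosophila S3 cells treated with a concentration series. 20 uM Triacsin C defined 100% inhibition.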
# [1] = measured here: cell number channel AC50, cells fed with added oleic acid
# [2] = measured here: lipid fluorescence (Fed channel) AC50, cells fed with added oleic acid
Compound,cell number change,AC50 [1],AC50 [2]
COc1ccccc1C(NC(=O)C1CCCCC1)c1c(O)ccc2ccccc12 (stereo not drawn),-34.3%,"32.6 µM [falling, partial curve]","23.1 µM [falling, partial curve]"
O=C(CN1CCOCC1)N1CCCc2ccccc21,1.4%,"0.651 µM [falling, single point]",–
CCCOc1ccc(NC(=O)OC2CCN(C)CC2)cc1,-20.6%,"0.058 µM [falling, full curve, poor fit]","0.058 µM [falling, full curve]"
O=C(COC(=O)C1CC2CCCC(C1)C2=O)NNC(=O)c1ccccc1F (stereo not drawn),–,"4.11 µM [falling, single point]","29.1 µM [rising, single point]"
O=C1CC(NS(=O)(=O)c2ccc(F)cc2)CN1c1ccc2c(c1)OCCO2 (stereo not drawn),16.2%,–,"0.103 µM [falling, full curve, poor fit]"
CN1CCN(CCCN2c3ccccc3Sc3ccc(S(=O)(=O)N(C)C)cc32)CC1,5.92%,–,"0.366 µM [rising, full curve, poor fit]"
CCOc1ccc(C(=O)NCCc2ccccc2)cc1,-65.3%,"29.1 µM [falling, single point]","6.51 µM [falling, single point]"
O=C(c1ccc2snnc2c1)N1CCCC1,7.57%,–,"5.8 µM [falling, partial curve]"
CCNC(=S)Nc1scc(-c2ccccc2)c1C(=O)OCC,0.418%,"3.26 µM [rising, single point]","6.51 µM [rising, single point]"
CS(=O)Cc1cc(Oc2ccccc2)nc(-c2ccncc2)n1 (stereo not drawn),64.7%,"29.1 µM [rising, single point]","29.1 µM [rising, single point]"
C[C@@H](O)[C@H]1O[C@]2(C)CCC[C@H]1O2,4.45%,–,–
O=C(O)Cc1sc(-c2ccc(Cl)cc2)nc1-c1ccccc1,21.6%,"0.0259 µM [rising, full curve, poor fit]","29.1 µM [rising, single point]"
c1ccc(Cc2nnc3sc(Nc4ccccc4)nn23)cc1,-6.27%,–,"6.51 µM [rising, single point]"
O=C(CNC(=O)c1cccc(N2C(=O)c3ccccc3C2=O)c1)Nc1ccc(F)c(F)c1,21.5%,–,"6.51 µM [falling, single point]"
CC(/C=C/c1ccccc1F)=N\NC(=O)C(C)C,1.49%,–,"8.2 µM [rising, partial curve]"
c1ccc2c(N3CCCCC3)nc(N3CCCCC3)nc2c1,33.4%,"29.1 µM [rising, single point]","29.1 µM [rising, single point]"
CCC(=O)n1nc(NCc2ccc(OC)c(OC)c2)nc1NCc1ccc(OC)c(OC)c1,-20%,–,"0.82 µM [rising, single point]"
CCC(C)Sc1nc2c(c(=O)[nH]c(=O)n2C)n1CC(O)COc1ccccc1C (stereo not drawn),-64.8%,"23.1 µM [falling, partial curve]","29.1 µM [falling, single point]"
O=S(=O)(NCCc1cn2ccccc2n1)c1ccc2c(c1)CCCC2,1.35%,–,"14.6 µM [rising, single point]"
CC1CCCCC1NS(=O)(=O)c1ccc(-n2cnnn2)cc1 (stereo not drawn),-34.8%,"29.1 µM [falling, single point]",–
COc1ccc(C(=O)Nc2cc3c4c(c2)CC(=O)N4CCC3)c(OC)c1,-4.73%,–,"6.51 µM [falling, partial curve]"
CCOc1ccc(N=Nc2c(C)[nH]n(-c3ccccc3)c2=O)cc1,-28.1%,"2.31 µM [falling, full curve, poor fit]","2.06 µM [falling, full curve]"
c1ccc(CC2CCCNC2)cc1 (stereo not drawn),-0.838%,–,"0.92 µM [rising, full curve]"
CCCCC(O)(c1ccccc1)C(CN1CCOCC1)c1ccccc1 (stereo not drawn),-52%,"29.1 µM [falling, single point]","29.1 µM [falling, single point]"
COc1cc(C2N(c3ccc(F)cc3)C(=O)C3CCCN32)cc(OC)c1OC (stereo not drawn),0.348%,–,–

# 7 of the compounds above, tab-delimited:
Compound	cell number change	AC50 [1]	AC50 [2]
CCC(=O)n1nc(NCc2ccc(OC)c(OC)c2)nc1NCc1ccc(OC)c(OC)c1	-20%	–	0.82 µM [rising, single point]
CCC(C)Sc1nc2c(c(=O)[nH]c(=O)n2C)n1CC(O)COc1ccccc1C (stereo not drawn)	-64.8%	23.1 µM [falling, partial curve]	29.1 µM [falling, single point]
O=S(=O)(NCCc1cn2ccccc2n1)c1ccc2c(c1)CCCC2	1.35%	–	14.6 µM [rising, single point]
CC1CCCCC1NS(=O)(=O)c1ccc(-n2cnnn2)cc1 (stereo not drawn)	-34.8%	29.1 µM [falling, single point]	–
COc1ccc(C(=O)Nc2cc3c4c(c2)CC(=O)N4CCC3)c(OC)c1	-4.73%	–	6.51 µM [falling, partial curve]
CCOc1ccc(N=Nc2c(C)[nH]n(-c3ccccc3)c2=O)cc1	-28.1%	2.31 µM [falling, full curve, poor fit]	2.06 µM [falling, full curve]
c1ccc(CC2CCCNC2)cc1 (stereo not drawn)	-0.838%	–	0.92 µM [rising, full curve]

# Source: PubChem BioAssay AID2685 (National Center for Advancing Translational Sciences (NCATS), 2010)
